Results are given in words; binding and its absence hold for the method and conditions named. Some binding calls cover weakened binding; strength is not graded here.

Amino acid sequences for entries named in this document (tags omitted).
UniProt B6A876: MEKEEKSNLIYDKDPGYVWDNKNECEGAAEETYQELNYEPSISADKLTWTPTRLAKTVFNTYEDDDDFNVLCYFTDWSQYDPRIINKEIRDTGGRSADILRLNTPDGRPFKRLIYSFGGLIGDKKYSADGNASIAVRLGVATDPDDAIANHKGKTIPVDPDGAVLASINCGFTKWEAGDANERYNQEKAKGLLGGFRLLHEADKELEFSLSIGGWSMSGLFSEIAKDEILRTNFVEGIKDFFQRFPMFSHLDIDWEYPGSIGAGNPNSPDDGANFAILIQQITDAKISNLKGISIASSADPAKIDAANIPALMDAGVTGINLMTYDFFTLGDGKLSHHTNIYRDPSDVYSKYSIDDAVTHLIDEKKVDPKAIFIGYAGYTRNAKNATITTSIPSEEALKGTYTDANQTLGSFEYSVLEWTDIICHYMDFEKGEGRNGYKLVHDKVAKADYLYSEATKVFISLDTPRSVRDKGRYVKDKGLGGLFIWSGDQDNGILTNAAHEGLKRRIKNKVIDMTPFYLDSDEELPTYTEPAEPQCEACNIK
UniProt B6A879: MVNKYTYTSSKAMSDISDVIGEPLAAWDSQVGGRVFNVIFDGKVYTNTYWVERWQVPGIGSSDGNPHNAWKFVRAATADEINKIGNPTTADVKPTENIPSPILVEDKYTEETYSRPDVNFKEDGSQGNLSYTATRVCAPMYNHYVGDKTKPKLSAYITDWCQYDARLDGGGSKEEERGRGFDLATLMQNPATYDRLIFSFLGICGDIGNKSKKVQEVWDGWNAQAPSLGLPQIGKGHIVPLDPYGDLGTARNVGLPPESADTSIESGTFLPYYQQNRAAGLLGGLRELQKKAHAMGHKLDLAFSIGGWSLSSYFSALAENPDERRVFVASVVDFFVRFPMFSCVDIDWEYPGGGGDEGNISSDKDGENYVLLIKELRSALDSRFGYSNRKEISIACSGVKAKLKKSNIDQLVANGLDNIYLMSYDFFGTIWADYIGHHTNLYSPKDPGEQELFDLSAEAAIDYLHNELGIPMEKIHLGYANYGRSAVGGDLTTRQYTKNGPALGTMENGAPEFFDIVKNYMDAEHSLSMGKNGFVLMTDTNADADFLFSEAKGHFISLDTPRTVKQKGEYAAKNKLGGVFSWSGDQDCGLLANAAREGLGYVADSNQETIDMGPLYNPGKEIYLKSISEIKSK

For the assay, the target named is Chi1 (UniProt B6A876). As to the kind of experiment: cryo-EM structure; […], Tris buffer pH 7.5); […].

On to “Chi2 (from UniProt B6A879 1-633) (enzyme)”, for which the binding result is given as “binds”.

(Values after PMC10847046.)
